In paper PMC9405023, “NRF2 Regulates Cystathionine Gamma-Lyase Expression and Activity in Primary Airway Epithelial Cells Infected with Respiratory Syncytial Virus”:
Construct, isoform or probe ends are uncertain for at least one entry. Where cells or extracts were used, other partners may take part.

The chains behind the UniProt entries cited, without tags or fusion partners.
UniProt Q16236, whole entry: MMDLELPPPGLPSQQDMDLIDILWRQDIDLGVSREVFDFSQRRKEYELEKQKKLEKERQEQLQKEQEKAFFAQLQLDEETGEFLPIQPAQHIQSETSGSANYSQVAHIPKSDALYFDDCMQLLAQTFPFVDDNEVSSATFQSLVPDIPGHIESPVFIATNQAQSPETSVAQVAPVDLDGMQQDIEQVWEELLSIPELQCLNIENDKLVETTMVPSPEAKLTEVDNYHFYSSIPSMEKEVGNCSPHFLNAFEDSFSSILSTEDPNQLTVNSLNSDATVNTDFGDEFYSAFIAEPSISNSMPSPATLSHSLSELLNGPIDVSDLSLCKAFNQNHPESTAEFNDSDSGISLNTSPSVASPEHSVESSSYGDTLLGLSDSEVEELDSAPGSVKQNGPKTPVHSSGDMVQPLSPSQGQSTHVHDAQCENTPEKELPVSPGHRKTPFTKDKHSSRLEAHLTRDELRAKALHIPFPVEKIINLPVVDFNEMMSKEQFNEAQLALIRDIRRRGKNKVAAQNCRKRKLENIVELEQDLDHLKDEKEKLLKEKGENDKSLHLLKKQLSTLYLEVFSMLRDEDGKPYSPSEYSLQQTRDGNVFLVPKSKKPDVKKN

Key:
[1] = target: NRF2 (nuclear extract of tBHQ-treated primary SAE cells) (Homo sapiens) (UniProt Q16236); experiment: competition with a labelled probe; conditions: 50x unlabeled WT oligo competes C1 and C2, tBHQ-treated cells; 10 mM Tris-HCl pH 8.0, 50 mM KCl, 50 mM NaCl, 1 mM MgCl2, 1 mM EDTA, 5 mM DTT, 2.5% glycerol, 0.3 ug poly dI-dC, 15 fmol probe, 6-8 ug nuclear extract, 10 uL, 15 min; protein in an extract; label: 32P (probe), unlabeled as competitor
[2] = target: NRF2 (nuclear extract of tBHQ-treated primary SAE cells) (Homo sapiens) (UniProt Q16236); experiment: EMSA supershift; conditions: anti-NRF2 antibody, C1 and C2 shifted, 10 mM Tris-HCl pH 8.0, 50 mM KCl, 50 mM NaCl, 1 mM MgCl2, 1 mM EDTA, 5 mM DTT, 2.5% glycerol, 0.3 ug poly dI-dC, 15 fmol probe, 6-8 ug nuclear extract, 10 uL, 15 min, protein in an extract, label: 32P (probe), unlabeled as competitor

Sequence: CGGTCGCGGTGACGTTTCAGGCAACGCCTCTGCTGT (double strand) [-156/-120 CSE wild type (WT)]
- binding result [1]: binds
- binding result [2]: binds
